Experimental data from US11497806B2, “Immunization agents and methods of use” (priority 2014, dated 2022).
At least one compound was matched to its structure with a doubt left.

Tested on: Vero cells
Assay: Viral DNA replication and transcription (qPCR, RT-qPCR) in Vero cells infected with HSV-GS3
Format: cell-based
Details: ulipristal 0.1-10 nM with heat, FIG. 5A

CC(=O)[C@@]1(O)CC[C@H]2[C@@H]3CCC4=CC(=O)CCC4=C3[C@@H](c3ccc(N(C)C)cc3)C[C@@]21C [ulipristal]
Viral DNA replication, dependence on regulator dose: dependent on regulator dose
